According to patent US20080226579A1, “Novel Resinate Complex of S-Clopidogrel and Production Method Thereof” (Chong Kun Dang Pharmaceutical Corp., priority 2005, published 2008):

Assay: Sensory test of five volunteers: comparison of taste and mucosal irritation
Conditions: 75 mg as free base; for taste and irritation in the mouth (text summary of Table 1): solid form; for Bitterness / Sour taste: solid form containing no excipient, water or solvent

For “Methyl(+)-(S)-(2-chlorophenyl)(6,7-dihydro-4H-thieno[3,2-c]pyridine-5-yl)acetate-styrene sulfonate polymer complex [Example 9]”, the “taste and irritation in the mouth (text summary of Table 1)” value (“taste and irritation in the mouth” for short) was “did not induce irritation or bitterness in the mouth but with some mild sour taste or no taste”, the Bitterness was “No” and the Sour taste was “Little taste”.
For “Methyl(+)-(S)-(2-chlorophenyl)(6,7-dihydro-4H-thieno[3,2-c]pyridine-5-yl)acetate-styrene sulfonate polymer complex [Example 2]”, the “taste and irritation in the mouth” value was “did not induce irritation or bitterness in the mouth but with some mild sour taste or no taste”, the Bitterness was “No” and the Sour taste was “Very mild”.
For `COC(=O)[C@H](c1ccccc1Cl)N1CCc2sccc2C1` [Clopidogrel hydrogen sulfate, reference compound], the “taste and irritation in the mouth” value was “bitter and obnoxious taste”, the Bitterness was “Sustained” and the Sour taste was “Very severe”.

Structures can show the parent of a compound that is named as a salt.
